Source: patent US20060121042A1
Results are given in words; binding and its absence hold for the method and conditions named. Some entries that bind do so weakly or less than the wild type.

Sequences of proteins named here, by UniProt entry; tags and fusion partners are left off. A change or cut given only in a name is not applied to a line headed by its entry. Residues count along the entry.
UniProt Q03145, residues 26-535: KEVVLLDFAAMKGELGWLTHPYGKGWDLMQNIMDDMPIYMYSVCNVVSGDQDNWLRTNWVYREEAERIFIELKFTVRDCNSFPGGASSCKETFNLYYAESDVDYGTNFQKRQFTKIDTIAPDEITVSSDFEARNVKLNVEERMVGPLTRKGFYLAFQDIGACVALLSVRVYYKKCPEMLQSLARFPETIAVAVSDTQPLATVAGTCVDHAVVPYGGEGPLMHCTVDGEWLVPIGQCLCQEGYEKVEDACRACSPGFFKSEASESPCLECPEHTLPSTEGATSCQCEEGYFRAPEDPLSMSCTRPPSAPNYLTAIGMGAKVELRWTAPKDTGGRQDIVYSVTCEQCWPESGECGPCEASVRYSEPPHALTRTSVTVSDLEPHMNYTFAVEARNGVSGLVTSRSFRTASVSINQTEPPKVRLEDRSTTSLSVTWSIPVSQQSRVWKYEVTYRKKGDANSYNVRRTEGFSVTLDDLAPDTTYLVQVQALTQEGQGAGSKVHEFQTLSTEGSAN
UniProt Q03137, residues 20-547: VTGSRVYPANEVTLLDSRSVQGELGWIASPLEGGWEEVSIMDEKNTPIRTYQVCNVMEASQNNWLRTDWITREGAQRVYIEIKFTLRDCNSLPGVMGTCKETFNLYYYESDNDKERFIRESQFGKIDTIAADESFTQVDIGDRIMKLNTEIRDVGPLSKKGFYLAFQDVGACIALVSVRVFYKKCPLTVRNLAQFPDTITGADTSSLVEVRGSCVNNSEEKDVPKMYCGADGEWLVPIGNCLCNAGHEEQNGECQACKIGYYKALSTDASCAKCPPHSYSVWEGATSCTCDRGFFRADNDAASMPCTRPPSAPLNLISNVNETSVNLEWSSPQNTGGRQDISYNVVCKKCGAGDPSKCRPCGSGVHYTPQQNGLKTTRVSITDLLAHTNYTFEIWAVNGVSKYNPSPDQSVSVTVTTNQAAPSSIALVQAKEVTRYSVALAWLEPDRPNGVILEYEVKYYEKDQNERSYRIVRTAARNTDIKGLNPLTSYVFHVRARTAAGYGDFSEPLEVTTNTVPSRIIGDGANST
UniProt Q61772, residues 28-555: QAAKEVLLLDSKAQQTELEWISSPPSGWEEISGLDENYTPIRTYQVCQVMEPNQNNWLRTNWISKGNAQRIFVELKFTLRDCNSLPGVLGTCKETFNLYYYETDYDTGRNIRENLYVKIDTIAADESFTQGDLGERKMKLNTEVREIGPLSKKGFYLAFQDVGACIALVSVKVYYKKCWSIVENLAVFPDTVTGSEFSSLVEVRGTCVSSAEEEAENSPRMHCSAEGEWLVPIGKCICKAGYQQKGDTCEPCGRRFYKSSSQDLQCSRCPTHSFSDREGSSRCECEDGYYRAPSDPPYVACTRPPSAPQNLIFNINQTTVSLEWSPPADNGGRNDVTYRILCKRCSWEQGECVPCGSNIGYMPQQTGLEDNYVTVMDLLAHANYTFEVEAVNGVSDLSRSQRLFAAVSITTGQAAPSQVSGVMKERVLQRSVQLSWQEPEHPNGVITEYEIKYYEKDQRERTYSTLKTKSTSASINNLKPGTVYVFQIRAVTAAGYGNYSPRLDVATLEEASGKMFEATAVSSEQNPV
UniProt P54764: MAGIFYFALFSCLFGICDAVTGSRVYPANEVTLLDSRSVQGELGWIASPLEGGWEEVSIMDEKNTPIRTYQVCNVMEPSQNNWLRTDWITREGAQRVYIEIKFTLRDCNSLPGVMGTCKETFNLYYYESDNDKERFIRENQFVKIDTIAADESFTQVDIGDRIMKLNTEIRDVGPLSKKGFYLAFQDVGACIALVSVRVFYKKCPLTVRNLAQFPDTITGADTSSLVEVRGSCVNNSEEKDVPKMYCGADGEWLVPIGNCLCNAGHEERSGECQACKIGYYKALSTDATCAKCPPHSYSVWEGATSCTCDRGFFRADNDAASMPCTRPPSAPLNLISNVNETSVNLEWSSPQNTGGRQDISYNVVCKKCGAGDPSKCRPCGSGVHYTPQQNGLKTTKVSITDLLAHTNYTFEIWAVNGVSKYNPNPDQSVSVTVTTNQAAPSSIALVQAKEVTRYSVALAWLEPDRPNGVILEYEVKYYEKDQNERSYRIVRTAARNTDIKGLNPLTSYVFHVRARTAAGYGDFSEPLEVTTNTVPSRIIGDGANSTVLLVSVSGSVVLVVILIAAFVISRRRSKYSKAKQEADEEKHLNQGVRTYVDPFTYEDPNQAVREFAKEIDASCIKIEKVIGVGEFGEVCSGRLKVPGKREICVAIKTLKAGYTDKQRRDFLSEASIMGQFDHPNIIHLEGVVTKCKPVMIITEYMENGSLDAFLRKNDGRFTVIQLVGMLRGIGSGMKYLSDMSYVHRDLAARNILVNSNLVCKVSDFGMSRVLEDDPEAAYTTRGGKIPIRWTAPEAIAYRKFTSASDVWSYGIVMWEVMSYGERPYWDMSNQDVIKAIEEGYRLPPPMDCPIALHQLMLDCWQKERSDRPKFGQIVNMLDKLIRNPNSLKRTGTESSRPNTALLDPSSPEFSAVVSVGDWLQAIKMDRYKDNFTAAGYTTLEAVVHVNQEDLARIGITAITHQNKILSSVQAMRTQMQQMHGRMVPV

Tests used:
murine EphA2 (mouse) = murine EphA2 (mouse) (UniProt Q03145); assay: activity ELISA, IgG on coated antigen
r human EphA1 (human) = target: T1, r human EphA1 (human) (UniProt P21709); assay: activity ELISA, IgG on coated antigen
T1 sequence (receptor-Fc fusion, looked up): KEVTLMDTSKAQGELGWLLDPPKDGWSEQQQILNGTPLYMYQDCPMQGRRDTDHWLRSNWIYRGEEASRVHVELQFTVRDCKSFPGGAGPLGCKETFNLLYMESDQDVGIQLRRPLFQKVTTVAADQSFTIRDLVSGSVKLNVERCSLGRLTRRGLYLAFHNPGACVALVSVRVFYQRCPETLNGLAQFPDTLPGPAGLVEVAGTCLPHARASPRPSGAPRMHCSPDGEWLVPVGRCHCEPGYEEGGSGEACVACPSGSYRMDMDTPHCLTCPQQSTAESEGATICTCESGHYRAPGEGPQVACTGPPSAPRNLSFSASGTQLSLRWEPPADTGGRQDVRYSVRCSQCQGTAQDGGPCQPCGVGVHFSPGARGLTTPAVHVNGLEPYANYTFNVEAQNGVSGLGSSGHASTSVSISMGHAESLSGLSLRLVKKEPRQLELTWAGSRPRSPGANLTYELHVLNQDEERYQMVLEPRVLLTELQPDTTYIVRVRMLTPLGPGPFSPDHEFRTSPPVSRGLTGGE

r murine EphA3 (mouse) = target: T2, r murine EphA3 (mouse) (UniProt P29319); assay: activity ELISA, IgG on coated antigen
T2 sequence (receptor-Fc fusion, looked up): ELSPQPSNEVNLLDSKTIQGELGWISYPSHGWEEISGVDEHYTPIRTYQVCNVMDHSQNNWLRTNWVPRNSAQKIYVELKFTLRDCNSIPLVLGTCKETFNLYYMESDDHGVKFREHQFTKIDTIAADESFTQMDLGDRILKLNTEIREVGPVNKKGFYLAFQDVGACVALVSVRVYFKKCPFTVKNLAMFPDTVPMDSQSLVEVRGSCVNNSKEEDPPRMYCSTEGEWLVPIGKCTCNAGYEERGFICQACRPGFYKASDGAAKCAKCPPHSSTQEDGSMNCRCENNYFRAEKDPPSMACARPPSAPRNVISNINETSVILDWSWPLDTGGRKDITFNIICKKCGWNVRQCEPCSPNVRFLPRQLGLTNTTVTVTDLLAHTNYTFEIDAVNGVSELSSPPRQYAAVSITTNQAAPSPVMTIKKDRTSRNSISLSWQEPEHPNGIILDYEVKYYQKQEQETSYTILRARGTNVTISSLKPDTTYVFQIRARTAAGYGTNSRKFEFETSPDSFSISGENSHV

r murine EphA4 (mouse) = r murine EphA4 (mouse) (UniProt Q03137); assay: activity ELISA, IgG on coated antigen
r murine EphA7 (mouse) = r murine EphA7 (mouse) (UniProt Q61772); assay: activity ELISA, IgG on coated antigen
[1] = target: Human EphA4-His fusion protein (human) (UniProt P54764); assay: activity ELISA, IgG on 0.5 ug/ml human EphA4
[2] = target: Human EphA4-Fc fusion protein (human) (UniProt P54764); assay: BIAcore, IgG immobilized, human EphA4-Fc as analyte (FIG. 15)
[3] = target: Human EphA4-His fusion protein (human) (UniProt P54764); assay: BIAcore, IgG immobilized, human EphA4-His as analyte (FIG. 15)
[4] = target: Human EphA4-His fusion protein (human) (UniProt P54764); assay: ELISA, receptor coated on the plate, purified IgG, anti-human kappa-HRP
hEphA1 (human) = target: T3, hEphA1 (human) (UniProt P21709); assay: as above
T3 sequence (receptor-Fc fusion, looked up): T1 sequence (receptor-Fc fusion, looked up)

mEphA2 (mouse) = mEphA2 (mouse) (UniProt Q03145); assay: as above
mEphA3 (mouse) = target: T4, mEphA3 (mouse) (UniProt P29319); assay: as above
T4 sequence (receptor-Fc fusion, looked up): T2 sequence (receptor-Fc fusion, looked up)

mEphA4 (mouse) = mEphA4 (mouse) (UniProt Q03137); assay: as above
mEphA7 (mouse) = mEphA7 (mouse) (UniProt Q61772); assay: as above

Measured: binding

B1: 8B4 IgG1 (affinity optimized combinatorial variant of mAb GEA44 in human IgG1 format) (antibody, V domains shown)
VH: QVQLLQSGAEVKKPGASVKVPCKASGYTFTSRAMSWVRQAPGQGLEWMGWINTNTGNPTYAQGFTGRFVFSLDTSVSTAYLQISSLKAEDTAVYYCARVRLTVYGDGMDVWGQGTLVTVSS
VL: EIVLTQSPATLSVSPGERATLSCRASQSVSSNPAWYQQKPGQAPRLLIYGLSTRATGIPDRFSASGSGTDFTLTISRVEPEDFAVYYCQQYGPSWTFGQGTKVEIK
binds: all assays above
